# Record: PubChem BioAssay AID504786 (Drosophila RNAi Screening Center, 2011)
# Purpose: 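Fly genes required for HIF-dependent transcription when hypoxia is mimicked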 (primary screen)
# System: Drosophila S2 cells with a stable HIF luciferase reporter
# Knock-down reagent: long dsRNA against Drosophila genes, about 0.2 µg dsRNA per well of a 384-well plate
# Time to read-out: three days of knock-down, then 20 h of DFO before reading
# Challenge: desferrioxamine (DFO) at 100 µM, an iron chelator that mimics hypoxia, for 20 h
# Measured: 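HIF reporter luminescence in cells given 100 µM DFO for 20 h, using the mouse ldh-a hypoxia-response element, scored as per-plate z-scores; higher means greater loss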
# Scale: z-score: higher = stronger loss of HIF reporter signal
# The deposit covers about 21,000 reagents; shown is a random part of those with a known target gene and a result. 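Primary screen; positive scores mean lost reporter signal, so the sign may be inverted from the usual convention.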 A plus sign joins genes that one reagent is predicted to hit.
gene,dsRNA,"z-score, replicate 1","z-score, replicate 2"
Nha1,DRSC02109,-0.3,-0.5
DIP-delta,DRSC10214,0.3,-0.7
DIP-delta,DRSC10450,-0.4,0
h-cup + Rbp,DRSC14990,-0.2,-0.4
CG15177,DRSC12557,-0.4,0
CG14752,DRSC06488,-0.2,-0.8
dah,DRSC20320,-0.5,-0.2
tant,DRSC11401,-0.3,-0.5
grau,DRSC04691,-0.5,-0.7
CG32795,DRSC18609,-0.1,0
CG32795,DRSC18610,-0.2,-0.7
GluRIB + CG42509 (retired record),DRSC10258,-0.3,0
GluRIB + CG42509 (retired record),DRSC11177,-0.2,0.4

The list goes on (3 carried over from the part before).
gene,dsRNA,"z-score, replicate 1","z-score, replicate 2"
CG32795,DRSC18610,-0.2,-0.7
GluRIB + CG42509 (retired record),DRSC10258,-0.3,0
GluRIB + CG42509 (retired record),DRSC11177,-0.2,0.4
CG6283,DRSC16009,0.2,0.5
CG3704,DRSC18174,0.1,-0.6
CG3704,DRSC18645,-0.3,-0.6
cactin,DRSC20576,1.9,1.8
Or69a,DRSC11243,0,-0.3
Ets98B,DRSC16666,-0.5,0.4
Patronin,DRSC06756,-0.2,-0.4
Patronin,DRSC06757,0.2,-0.1
Patronin,DRSC06994,0,0.1
dpr7,DRSC17109,-0.2,-0.3
CG34461,DRSC10767,0.5,0
CG15699 (retired record),DRSC06571,-0.3,-0.4
CG34280,DRSC13229,-0.4,0
CG10097 + CG10096,DRSC14189,-0.3,-0.1
CG10097 + CG10096,DRSC14190,-0.3,-0.6
CG6908,DRSC16131,-0.2,0
tsl,DRSC17090,-0.1,-0.4
hbt,DRSC02503,-0.4,-0.5
CG5892,DRSC15910,0.2,0
CG42382,DRSC07671,-0.3,-0.4
CG30269,DRSC04158,-0.2,0
